Results: US20050106660A1

What was measured:
[1] = molecular target: hemoglobin (Sigma); assay: SPR, legend of FIG. 4
[2] = molecular target: myoglobin (Sigma); assay: SPR, legend of FIG. 4
[3] = molecular target: myoglobin (Sigma); assay: SPR (BIAcore X), myoglobin immobilized on CM5 chip

- binding [1]: binds
- binding [2]: binds
- binding [3]: binds
B1: anticalin HbgA (mutein of human apolipoprotein D), purified, with C-terminal Strep-Tag II (designed binder, not shown: small tags and cut ends)
chain: QAFHLGKCPNPPVQENFDVNKYPGRWYEIEKIPQFVWMGRCIQANYSLMENGKIKVLNQFLRITLDVWQIEGEATPVNLTEPAKLEVKEGLGDPSAPYWILATDYENYALVYSCESFLWLFHWDFAWILARNVALPPETVDSLKNILTSNNIDVKKMTVTDQVNCPKLS

No constants are given. Whether binding was seen depends on the method and setting. Binding can be weak; no strength is given. Sequences can lack the tags named with a protein.
